According to PMC7819943, “Rice protein-binding microarrays: a tool to detect cis-acting elements near promoter regions in rice”:
The other results are listed elsewhere or left out.

Amino acid sequences for entries named in this document (tags omitted).
UniProt Q0JBA9, entry or part of it: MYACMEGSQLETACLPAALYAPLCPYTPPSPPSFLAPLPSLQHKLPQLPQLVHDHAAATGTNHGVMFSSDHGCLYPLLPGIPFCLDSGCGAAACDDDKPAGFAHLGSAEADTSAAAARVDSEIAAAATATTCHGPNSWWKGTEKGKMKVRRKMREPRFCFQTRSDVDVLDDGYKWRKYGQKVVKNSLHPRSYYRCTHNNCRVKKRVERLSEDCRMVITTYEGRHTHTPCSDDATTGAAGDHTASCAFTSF

The sequences below were run against OsWRKY34 (Oryza sativa, UniProt Q0JBA9 1-250) (assay: protein-binding microarray (RPBM); PBS, 2% BSA, 51.3 ng/ul salmon testes DNA, 50 uM zinc acetate, 200 nM TF, 25 C, 1 h; high values mean tight binding). Details: protein: recombinant; tags: N-terminal polyhistidine and DsRed monomer fusion (pET32a); label: CyDye5-dUTP incorporated in the synthesized complementary strand; 3' TTTTT single-stranded linker to array surface; dsDNA, one strand shown.
Procedure, shortened: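 Transcription factors were each fused at the N-terminus to a polyhistidine tag plus DsRed and expressed in E. coli BL21-CodonPlus before Ni–NTA purification. Binding to a double-stranded custom Agilent array was carried out with 200 nM protein at 25 °C for 1 h in PBS, 2% BSA, salmon testes DNA and 50 µM zinc acetate. The binding signal is per-feature fluorescence intensity, in arbitrary units, on an Axon 4000B scanner.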

Sequence | binding signal
AAACTGTTTAGCTGAGCTCTAGTTTTATCTTAATCTTAGACGGAGTCACCTAGTGCAG | 8380 fluorescence intensity (a.u.)
CCTTCTCGCCGCACTCTGACATGATGTTCGCCGCAGCGAACGGAGTCACCTAGTGCAG | 8690 fluorescence intensity (a.u.)
CTTTCTTGCAATTTTGGTCTTCTTTCCTTTTGATTTGGTTCGGAGTCACCTAGTGCAG | 9200 fluorescence intensity (a.u.)
ATATCTTGTGTTCCTTGTTGTATACGTTGGTATACCCCTCCGGAGTCACCTAGTGCAG | 8580 fluorescence intensity (a.u.)
AGACGTTTTGATTTTGGTCAAAGTTAAACTGTTTCAAGTTCGGAGTCACCTAGTGCAG | 8120 fluorescence intensity (a.u.)
GATGTATAGTAAAATGTGAACTTTTTTTTATGGTTTTTTCCGGAGTCACCTAGTGCAG | 8910 fluorescence intensity (a.u.)
AATATATACCACGTGCCGGAAACTCAGACTTAACGGACATCGGAGTCACCTAGTGCAG | 8790 fluorescence intensity (a.u.)
ATGATTTTCTTTTCATGCCCGTACTTAATTTACTGCAGTACGGAGTCACCTAGTGCAG | 9770 fluorescence intensity (a.u.)
CCATTTCTAGCTAGCTATACGATCGATCTATACATATATACGGAGTCACCTAGTGCAG | 11700 fluorescence intensity (a.u.)
GTGGGTCCACTTGCTACACATACCACCCCACTTAAACTTTCGGAGTCACCTAGTGCAG | 8640 fluorescence intensity (a.u.)
TAGAAGACCCCGAGTTAGACCTAATAGTTCGGCCCATATACGGAGTCACCTAGTGCAG | 8610 fluorescence intensity (a.u.)
GGGCACTGTTTTTGTTTATTGGACTCCAGTCGCAAGTTCGCGGAGTCACCTAGTGCAG | 9030 fluorescence intensity (a.u.)
GAGTTTTACTTCAGTGGCAATTTCTTTTATATAACTGGTTCGGAGTCACCTAGTGCAG | 8060 fluorescence intensity (a.u.)
CACCTCGTTTTGCGTAAAACACTTGATCTTGATCTTTATCCGGAGTCACCTAGTGCAG | 11100 fluorescence intensity (a.u.)
CGCCGCGGCCCCGTCACACCTCATCCTCTTCGCTTGGCCTCGGAGTCACCTAGTGCAG | 8740 fluorescence intensity (a.u.)
CAAAGCTTTGTTCTTCTTGCTCTTCTTATACTCGAGCAGCCGGAGTCACCTAGTGCAG | 8230 fluorescence intensity (a.u.)
ACCCTGATATCATATTCGTATTCGTATTTGGGAGAAAATACGGAGTCACCTAGTGCAG | 8080 fluorescence intensity (a.u.)
GCCGTGCTCTGCCCCTGTGCTACATAACCAGCTTCCACTCCGGAGTCACCTAGTGCAG | 9350 fluorescence intensity (a.u.)
AAATGGTTTATTATCTGACTCATACAACATGTGCTGCCAACGGAGTCACCTAGTGCAG | 9500 fluorescence intensity (a.u.)
TCGCCTTTCGCCCACCGGCCTCTTTTGGAAAATGTCGCACCGGAGTCACCTAGTGCAG | 9880 fluorescence intensity (a.u.)
GGTTCTTACTGTTGTACAGTTACTATAGGCCGACGTACGGCGGAGTCACCTAGTGCAG | 10300 fluorescence intensity (a.u.)

Sequence | binding signal
CCAGTCCCAGCCACCCCACCAACACCAAGCTTTCGCGTCTCGGAGTCACCTAGTGCAG | 10400 fluorescence intensity (a.u.)
CTGCCGCTGTTGGATCTCCACTGATTCCATCGATTCCACCCGGAGTCACCTAGTGCAG | 8940 fluorescence intensity (a.u.)
AGAACTTCTCGTCTTCTCAATTTGTTCTTTTGGTATTCTACGGAGTCACCTAGTGCAG | 9350 fluorescence intensity (a.u.)
TGTTGACTCATGTAACTTTACCCTTCTCTTAGGCCGTGTTCGGAGTCACCTAGTGCAG | 8140 fluorescence intensity (a.u.)
GCTGTCTGTACATTTTTTCGTTTTTGCTGGCATGCTTTCTCGGAGTCACCTAGTGCAG | 9740 fluorescence intensity (a.u.)
ATGTGGGTGTGTGAATGACAAATGGGTCCCACGTATAACTCGGAGTCACCTAGTGCAG | 9700 fluorescence intensity (a.u.)
ATATACACGTGCACACACTCAACCTATCACATGCATCTGACGGAGTCACCTAGTGCAG | 9090 fluorescence intensity (a.u.)
CCCTACTTTGTGTGTGTTTTACCGTACCACACCACAAAATCGGAGTCACCTAGTGCAG | 8980 fluorescence intensity (a.u.)
AGCCACCGCCGGCCACATCCCTCGCACGTCTGCGCTCGCCCGGAGTCACCTAGTGCAG | 9300 fluorescence intensity (a.u.)
TATGTTCGGTATCGTATTAAATCTACTCCTATTTGTACCTCGGAGTCACCTAGTGCAG | 8570 fluorescence intensity (a.u.)
ACGTCTCATTCTTCTCAAACACACGACGTCGCCAAAAGCACGGAGTCACCTAGTGCAG | 8380 fluorescence intensity (a.u.)
ATGGTCTCACATGTCATACACATATTCCGTCTTGGAGTTCCGGAGTCACCTAGTGCAG | 11200 fluorescence intensity (a.u.)
GTCCACGCCTCACCTCGCCTCGGGCGCCTTCTTCTCCAAGCGGAGTCACCTAGTGCAG | 10100 fluorescence intensity (a.u.)
GTTTTGTTTGCTTTTCAATTTATTTTAATAACTTTTTCAACGGAGTCACCTAGTGCAG | 9400 fluorescence intensity (a.u.)
CCATGATTATTCTTTTTACTCTACCATGGTCCCAAGTCTCCGGAGTCACCTAGTGCAG | 8290 fluorescence intensity (a.u.)
CTACTAATCCGTACTCCATCCGTCTCATTTTAAATACAATCGGAGTCACCTAGTGCAG | 10200 fluorescence intensity (a.u.)
CACGTCGGCCCCGCGCGCTGTCCGATCGGCTTGATTGAACCGGAGTCACCTAGTGCAG | 9670 fluorescence intensity (a.u.)
CGGGGCTAGGCCGCCGGTGGGGAGGCTTCGGGAGGTGGGGCGGAGTCACCTAGTGCAG | 11900 fluorescence intensity (a.u.)
CCCTGCCGATCCGTTCCGGCTCTTGATATGCACCGCACTTCGGAGTCACCTAGTGCAG | 8900 fluorescence intensity (a.u.)
AATTATGATCTTTTTAAAATCCACTCTTAACGCTTTTTTCCGGAGTCACCTAGTGCAG | 8100 fluorescence intensity (a.u.)
ACCATCTTTCTCTTTACCATGATCATTTTAGCATCTTTGACGGAGTCACCTAGTGCAG | 10000 fluorescence intensity (a.u.)

Sequence | binding signal
ATCCATGAGCTGTTGCTGCAAATCCTCGCTATTCTTTCCGCGGAGTCACCTAGTGCAG | 9050 fluorescence intensity (a.u.)
TTTTTTACTTCTCGGGCTTTCCTTAGTTTCCTTCGTTTTCCGGAGTCACCTAGTGCAG | 9700 fluorescence intensity (a.u.)
CACCCGGCGCTGCTTCTCTGCATTTAAATCGAAGCACGCCCGGAGTCACCTAGTGCAG | 8910 fluorescence intensity (a.u.)
CCCACCCAAGCAACGGTTCACCTACCCACCAGTAATAAAGCGGAGTCACCTAGTGCAG | 8600 fluorescence intensity (a.u.)
TCTCATTTTATCTGATTTTTGTATCGAGTTCTTGTTTATCCGGAGTCACCTAGTGCAG | 9400 fluorescence intensity (a.u.)
GTGTAAGACCATCTTCTCCCTATTCTTGGGTTCTTAGTTCCGGAGTCACCTAGTGCAG | 8510 fluorescence intensity (a.u.)
ATCCTGGTGCGGCCGCGACCTCACGCACGCATCTCTCTCTCGGAGTCACCTAGTGCAG | 9960 fluorescence intensity (a.u.)
ACCACACATCCCCAAATTTCTTTTATGGTACAACTCAAAACGGAGTCACCTAGTGCAG | 8590 fluorescence intensity (a.u.)
ATCGTTACCTATTCTTGTACCACATCAATCTGCACCGACGCGGAGTCACCTAGTGCAG | 8910 fluorescence intensity (a.u.)
AAACTCAATGCATGCACCATCCCCACTATTTTCTAGCCAACGGAGTCACCTAGTGCAG | 8290 fluorescence intensity (a.u.)
CGGCTTCTCGCTTTCTTGTTTCTCGTGGAGTTGCTTTTTTCGGAGTCACCTAGTGCAG | 17500 fluorescence intensity (a.u.)
TTATGTATCCGCCATTGCCTGTTGCAACGCAGTCTTTTTCCGGAGTCACCTAGTGCAG | 8680 fluorescence intensity (a.u.)
GGTTTTGGTGGAAAGGAGGGGAGGCATGGAGGGCGGCGGCCGGAGTCACCTAGTGCAG | 12800 fluorescence intensity (a.u.)
ATATGTTGTCCAAGTCATCGTTGATTTTGAGTTGTGCTGTCGGAGTCACCTAGTGCAG | 12200 fluorescence intensity (a.u.)
CCAATCACCGCCCTCCACGTGGCAAATCTCGCTTCGACTCCGGAGTCACCTAGTGCAG | 9100 fluorescence intensity (a.u.)
AACACCGTTCCTCCGCCGCGCCGTCATTGCCACCGGCCTCCGGAGTCACCTAGTGCAG | 9730 fluorescence intensity (a.u.)
ACCTACCTCTCTCGTTTTTCGCCCATTTTCCCAACCCACCCGGAGTCACCTAGTGCAG | 10600 fluorescence intensity (a.u.)
ACGCGCCAACTCCCAACTGCTACGATCTTTTGGTAGCCTCCGGAGTCACCTAGTGCAG | 8480 fluorescence intensity (a.u.)
GTACATAATTCTATCGTCCTGTATTTTCCCCATCTCTATCCGGAGTCACCTAGTGCAG | 9550 fluorescence intensity (a.u.)
ACACCCGTCCGTCCCGTCTCGTTCTGCGCCGTCTCGCCGGCGGAGTCACCTAGTGCAG | 11100 fluorescence intensity (a.u.)
GTGTTGGTGGCTCTGGCTGCGTCGACGTGCGCAGGGCGTTCGGAGTCACCTAGTGCAG | 8050 fluorescence intensity (a.u.)

In another format: entries from further up
CCCACCCAAGCAACGGTTCACCTACCCACCAGTAATAAAGCGGAGTCACCTAGTGCAG
  binding signal: 8600 fluorescence intensity (a.u.)
GGTTTTGGTGGAAAGGAGGGGAGGCATGGAGGGCGGCGGCCGGAGTCACCTAGTGCAG
  binding signal: 12800 fluorescence intensity (a.u.)
ATATGTTGTCCAAGTCATCGTTGATTTTGAGTTGTGCTGTCGGAGTCACCTAGTGCAG
  binding signal: 12200 fluorescence intensity (a.u.)
ACACCCGTCCGTCCCGTCTCGTTCTGCGCCGTCTCGCCGGCGGAGTCACCTAGTGCAG
  binding signal: 11100 fluorescence intensity (a.u.)

Additional entries follow.

Sequence | binding signal
CGTGGACCGTTGGCTCGTGGGCCCACCTGTCAAAATACTCCGGAGTCACCTAGTGCAG | 8060 fluorescence intensity (a.u.)
CTGGTGATTCCATCCAGCCGTCCACATGGTCATCGCTCATCGGAGTCACCTAGTGCAG | 8040 fluorescence intensity (a.u.)
GATGTGGTGGGGTGACATGACGCCCGGCGTCCCAATCATTCGGAGTCACCTAGTGCAG | 8230 fluorescence intensity (a.u.)
TCTGCCTGCTGCTCTGTTCGTCGGTTCGTGGTTTGTACGACGGAGTCACCTAGTGCAG | 9690 fluorescence intensity (a.u.)
GTTTCTGCGCTCAACTTTGATCGTCCGTCTTATTTAAATTCGGAGTCACCTAGTGCAG | 11700 fluorescence intensity (a.u.)
AGTAGCAATTACCCACGTGGCATCCACCGCTGTTGTTTCCCGGAGTCACCTAGTGCAG | 10700 fluorescence intensity (a.u.)
TTGGTCGTCTAATTCATGCTGACCACTAATTAAGTTACTGCGGAGTCACCTAGTGCAG | 8040 fluorescence intensity (a.u.)
ACCCATATGTCAGCATGCCACGTCAGCCTCTTCTCTATTTCGGAGTCACCTAGTGCAG | 10100 fluorescence intensity (a.u.)
CCTCGCCGGAGCCGCCGCCGTATCGTTCTTCTCCCACTCGCGGAGTCACCTAGTGCAG | 10100 fluorescence intensity (a.u.)
ATTCAGTGGATCCTGCTGCTCAAACTTTGCTGACTGAATTCGGAGTCACCTAGTGCAG | 8820 fluorescence intensity (a.u.)
GCCTGACAGCCATATCCATTTGGAAGCTACTACTACTACACGGAGTCACCTAGTGCAG | 8280 fluorescence intensity (a.u.)
TTTCTTGCTCTTTTCATTTGCCACTTCTCTGTTCTCGTGTCGGAGTCACCTAGTGCAG | 12800 fluorescence intensity (a.u.)
GACTCACCATACCTGCAACCGGCTAGATGCATCGACTCCTCGGAGTCACCTAGTGCAG | 9790 fluorescence intensity (a.u.)
TGGATTGTCTATATAACGAGACCCATTGCAATGCTTCATCCGGAGTCACCTAGTGCAG | 8470 fluorescence intensity (a.u.)
CCCCAACTCCCTAGCTACTCCCTGTCCCGGTTCTATAAATCGGAGTCACCTAGTGCAG | 10300 fluorescence intensity (a.u.)
TCTTTTCCTATCATTTGATTCATTGTTAAATATATTTTTACGGAGTCACCTAGTGCAG | 8540 fluorescence intensity (a.u.)
GCTTCCTGCCTCTCCGCTCTCCATGTGCGTGCCACCAAATCGGAGTCACCTAGTGCAG | 8650 fluorescence intensity (a.u.)
TCACATCACGATCGGCAACCTTATCTTGTCTCGAAACTGACGGAGTCACCTAGTGCAG | 8700 fluorescence intensity (a.u.)
GTCAAACATTTTTAAAAAAGTCAACGGCGTTAAATATTTTCGGAGTCACCTAGTGCAG | 14500 fluorescence intensity (a.u.)
GCAGAGAAGCACATTTTTTTTCTGGCACATTATTACTCATCGGAGTCACCTAGTGCAG | 9360 fluorescence intensity (a.u.)
GTGATTGGTTGGGAGGAGAATGTTGGTAGAGAAGTTGTTACGGAGTCACCTAGTGCAG | 8100 fluorescence intensity (a.u.)
